Sequences of proteins named here, by UniProt entry; tags and fusion partners are left off. A change or cut given only in a name is not applied to a line headed by its entry.
UniProt Q9UNA4: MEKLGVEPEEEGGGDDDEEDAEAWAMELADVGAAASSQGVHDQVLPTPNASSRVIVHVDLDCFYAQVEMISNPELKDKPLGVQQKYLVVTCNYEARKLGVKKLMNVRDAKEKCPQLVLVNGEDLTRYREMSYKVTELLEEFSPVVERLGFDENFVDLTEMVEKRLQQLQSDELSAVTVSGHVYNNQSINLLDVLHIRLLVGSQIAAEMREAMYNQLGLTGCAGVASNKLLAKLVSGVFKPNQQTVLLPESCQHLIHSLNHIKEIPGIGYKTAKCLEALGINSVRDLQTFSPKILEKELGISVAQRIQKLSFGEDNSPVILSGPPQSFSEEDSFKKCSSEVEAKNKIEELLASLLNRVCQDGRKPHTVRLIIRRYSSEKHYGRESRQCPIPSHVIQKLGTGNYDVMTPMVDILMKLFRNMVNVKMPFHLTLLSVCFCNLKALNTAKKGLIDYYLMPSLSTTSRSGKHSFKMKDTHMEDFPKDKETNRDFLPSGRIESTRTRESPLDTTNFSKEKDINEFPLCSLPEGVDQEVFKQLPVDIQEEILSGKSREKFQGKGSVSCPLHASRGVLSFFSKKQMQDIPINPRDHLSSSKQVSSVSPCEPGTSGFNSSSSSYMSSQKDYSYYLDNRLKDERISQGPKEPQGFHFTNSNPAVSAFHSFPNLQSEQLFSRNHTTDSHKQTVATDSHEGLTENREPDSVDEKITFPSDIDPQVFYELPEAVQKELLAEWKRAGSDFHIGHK

Where “and” joins values, the source holds several entries; their conditions need not be identical. Equal values may be shown once. The campaign covered roughly 390,000 compounds. About 4,000 (1%) were called active. The shares of active, inactive and inconclusive entries below differ from those in the screen. Calls come from the whole dose curve; as a rule, active = well fitted inhibition curve with a large enough effect; inconclusive = small, poorly fitted or top-dose-only effect, or another doubt; inactive = no such curve, though single readings can be large or run the other way. Where the call is inconclusive, the potency comes from a doubtful curve fit.
These molecules were tested against DNA polymerase iota (Homo sapiens) (UniProt Q9UNA4) (assay: qHTS for Inhibitors of Polymerase Iota). Settings: Pol iota fluorescent replication assay, 10 min; series mostly up to 115 µM; activity, negative = inhibition: at the top concentration.
How it was run: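 Fluorescent replication assay read twice, at 0 min and 10 min after adding 50 nM (final) substrate. Enzyme (10 nM) and compounds were first incubated 15 min at room temperature; enzyme-free buffer wells were negative controls.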
`COc1cccc(C(=O)N2CCN(Cc3ccc(OC)cc3OC)CC2)c1` was tested, and the “activity, negative = inhibition” value was inactive: 0.9%.
With `Cc1ccc(Nc2nnc(SCC(=O)Nc3cc(C(=O)O)ccc3C)s2)c(C)c1` the Potency was inconclusive: 44.7 µM [inhibitor, partial curve].
In the case of `COc1cccc2c1Oc1ncccc1N(C(=O)CCC(=O)NCc1ccc(C)cc1)C2`, the Potency is reported as inconclusive: 89.1 µM [inhibitor, single point].
With `O=C(COC(=O)c1ccccn1)NC1CCCCC1` the “activity, negative = inhibition” value was inactive: 33%.
In the case of `O=C1NC(=O)C(=Cc2ccccc2[N+](=O)[O-])S1`, the Potency is reported as inconclusive: 15.8 µM [inhibitor, full curve].
`C=CCCN(C(C)C(=O)OC)S(=O)(=O)c1ccccc1Br` (stereo not given) was tested, and the “activity, negative = inhibition” value was inactive: 24.5%.
With `Cc1ccc(-c2nn(-c3ccccc3)cc2C=C2C(=O)CC(C)(C)CC2=O)cc1` the Potency was inconclusive: 31.6 µM [inhibitor, single point].
In the case of `CC1(c2ccccc2)NC(=O)N(CC(=O)Nc2ccc(N3CCOCC3)cc2)C1=O` (stereo not given), the Potency is reported as inconclusive: 25.1 µM [inhibitor, partial curve, poor fit].
For `CSc1cccc(NC(=O)COC(=O)C2CCN(S(=O)(=O)c3ccccc3)CC2)c1`, the Potency was inconclusive: 79.4 µM [inhibitor, single point].
In the case of `Cc1ccc(C)c(CN2C(=O)c3ccccc3S(=O)(=O)c3ccc(C(=O)NCc4ccccc4)cc32)c1`, the “activity, negative = inhibition” value is reported as inactive: 1.94%.
With `CCOc1cc2ccccc2cc1C(=O)OCC(=O)Nc1ccc(Br)cc1` the “activity, negative = inhibition” value was inactive: 22.8%.
For `Cc1cc(C)c(S(=O)(=O)c2c(C)cccc2C)c(Cl)n1`, the “activity, negative = inhibition” value was inactive: -9.15%.
With `COCN(C#N)c1nc(N(C)C)nc(N(C)C)n1` the “activity, negative = inhibition” value was inactive: 95%.
For `CC(C)(C)NC(=O)CCn1nc(-c2ccc(Cl)cc2)c2ccccc2c1=O`, the Potency was inconclusive: 35.5 µM [inhibitor, single point].
With `Cc1cc(C)cc(NC(=O)C2CCN(S(=O)(=O)c3ccc4[nH]c(=O)ccc4c3)CC2)c1` the Potency was inconclusive: 89.1 µM [inhibitor, single point].
For `CCOCCCNC(=O)C(=O)Nc1c2c(nn1-c1ccc(OC)cc1)CSC2`, the “activity, negative = inhibition” value was inactive: 1.58%.
With `COC(=O)CCC(=O)OC1(C)C(=O)C2=CN(Cc3ccc(OC)cc3)C(c3ccc(OC)cc3)=CC2=C(Br)C1=O` (stereo not given) the “activity, negative = inhibition” value was inactive: 81.3%.
`COc1ccc(/C=C2/CCc3ccccc3C2=O)cc1OC` was tested, and the “activity, negative = inhibition” value was inactive: 11.4%.
With `COc1ccc(N2CCN(C(=O)C3CCCN3S(=O)(=O)c3cccc4nsnc34)CC2)cc1` (stereo not given) the “activity, negative = inhibition” value was inactive: 9.53%.
For `CC1(C)CCN(Cc2ccccc2)C1CC#N` (stereo not given), the Potency was inconclusive: 35.5 µM [inhibitor, partial curve, poor fit].
With `N#Cc1ccsc1NC(=O)CCS(=O)(=O)c1ccccc1` the “activity, negative = inhibition” value was inactive: -22.2%.
In the case of `Cc1cccn2c(=O)c3cc(S(=O)(=O)c4ccccc4)c(=N)n(Cc4ccco4)c3nc12`, the “activity, negative = inhibition” value is reported as inactive: 4.04%.
With `CCOc1ccc(CSC2=NCCN2)cc1Cl` the Potency was inconclusive: 25.1 µM [inhibitor, partial curve, poor fit].
For `CSc1nc(O)c(C(c2cccc([N+](=O)[O-])c2)c2c(O)nc(SC)[nH]c2=O)c(=O)[nH]1`, the Potency was inconclusive: 1 µM [inhibitor, full curve, poor fit].
For `Clc1ccc(CSc2nnc(-c3ccccn3)n2Cc2ccco2)c(Cl)c1`, the Potency was inconclusive: 20 µM [inhibitor, single point].
`COc1cccc(N2CC(NC(=O)C3CC3)CC2=O)c1` (stereo not given) was tested, and the “activity, negative = inhibition” value was inactive: 19.3%.
With `CCc1cccc(C)c1NC(=O)CCn1nc(C)c2c(C)n(-c3ccccc3)nc2c1=O` the Potency was inconclusive: 89.1 µM [inhibitor, single point].
For `Cc1cccc(NC(=O)CCC(=O)c2cccs2)n1`, the Potency was inconclusive: 14.1 µM [inhibitor, full curve, poor fit].
In the case of `CC1=C(C(=O)Nc2cccc(C(F)(F)F)c2)C(c2ccccc2)n2ncnc2N1` (stereo not given), the “activity, negative = inhibition” value is reported as inactive: 1.18%.
With `Cc1ccc(NC(=O)Cn2nnc(C(=O)NCCc3ccccc3)c2N)cc1Cl` the Potency was “inactive and inconclusive: 89.1 µM [inhibitor, single point]”.
`Cc1ccc(C(=O)N(C)CC(=O)Nc2cccc(F)c2)cc1S(=O)(=O)N1CCCCC1` was tested, and the Potency was inconclusive: 79.4 µM [inhibitor, partial curve, poor fit].
For `CCc1ccc2nc(N3C(=O)C(O)=C(C(=O)c4ccco4)C3c3cccs3)sc2c1` (stereo not given), the Potency was inconclusive: 39.8 µM [inhibitor, single point].
For `CCC(C)NC(=O)Cn1c(=O)ccc2cc(S(=O)(=O)N3CCCC3)ccc21` (stereo not given), the “activity, negative = inhibition” value was inactive: 4.55%.
With `Cc1nc2c(c(=O)n1CCC1=CCCCC1)c1nc3ccccc3nc1n2/N=C/c1ccco1` the Potency was inconclusive: 3.98 µM [inhibitor, full curve, poor fit].
`Cc1nc2cc(-c3cccc(F)c3)nn2c(C)c1CCC(=O)NC(C)CCc1ccco1` (stereo not given) was tested, and the Potency was inconclusive: 70.8 µM [inhibitor, single point].
`CCOC(=O)c1c(N2C(=O)CC(Sc3ccccc3C(=O)O)C2=O)sc2c1CCCC2` (stereo not given) was tested, and the “activity, negative = inhibition” value was inactive: 37.1%.
For `N=C1S/C(=C\c2ccc(-c3ccccc3C(=O)O)o2)C(=O)N1c1ccc2c(c1)OCO2`, the Potency was active: 12.6 µM.
`CC(C)[C@H](NC(=O)c1cccc(S(=O)(=O)N2CCOCC2)c1)C(=O)Nc1nc2ccccc2s1` was tested, and the Potency was inconclusive: 70.8 µM [inhibitor, partial curve, poor fit].
For `O=C1/C(=C/c2ccccc2)CN(C(=O)CCN2CCOCC2)C/C1=C\c1ccccc1`, the Potency was inconclusive: 15.8 µM [inhibitor, partial curve, poor fit].
With `COc1ccccc1OCc1nc(Cc2ccc(Cl)cc2)no1` the Potency was inconclusive: 15.8 µM [inhibitor, single point].
In the case of `O=S(=O)(Nc1ccc(Cl)cc1)c1cccc(S(=O)(=O)c2ccc(Cl)c(Cl)c2)c1`, the “activity, negative = inhibition” value is reported as inactive: -3.68%.
In the case of `O=C(C1CC1c1ccccc1)N1CCN(c2cccc(Cl)c2)CC1` (stereo not given), the Potency is reported as inconclusive: 25.1 µM [inhibitor, single point].
In the case of `S=c1[nH]nc(-c2ccncc2)n1Cc1ccco1`, the “activity, negative = inhibition” value is reported as inactive: -1.25%.
For `C=C(CCO)C1=CCN(S(=O)C(C)(C)C)[C@@H]1CCO` (stereo not given in full), the Potency was inconclusive: 1 µM [inhibitor, full curve, poor fit].
`CCc1cc2ccc(C)cc2nc1SCC(=O)NC1CCCC1` was tested, and the Potency was inconclusive: 89.1 µM [inhibitor, single point].
Potency is the fitted concentration of half-maximal effect.
